{"source": "patent US20230149603A1", "about": "“DRUG-RELEASING POLYMER COMPOSITION AND DEVICE” (Novaflux Inc., priority 2021, published 2023)", "origin": "cited, not measured here", "key": {"S. Aureus": {"tested_on": "S. Aureus", "settings": "averaged between the high and low of the MIC; cited from earlier work"}, "E. Coli": {"tested_on": "E. Coli", "settings": "averaged between the high and low of the MIC; cited from earlier work"}}, "note": "For at least one compound, name, drawing or mass did not settle the structure.", "data": [{"smiles": "CN(C)c1ccc(O)c2c1C[C@H]1C[C@H]3[C@H](N(C)C)C(O)=C(C(N)=O)C(=O)[C@@]3(O)C(O)=C1C2=O", "note": "[Minocycline]", "values": [{"measurement": "MIC", "setting": "S. Aureus", "result": 0.625, "unit": "micrograms per ml"}, {"measurement": "MIC", "setting": "E. Coli", "result": 1.25, "unit": "micrograms per ml"}]}]}
